# Measurements published in article doi:10.1101/659995.
# Protein sequences, listed by entry. Tags and fused reporters are not part of them.
# UniProt P40201: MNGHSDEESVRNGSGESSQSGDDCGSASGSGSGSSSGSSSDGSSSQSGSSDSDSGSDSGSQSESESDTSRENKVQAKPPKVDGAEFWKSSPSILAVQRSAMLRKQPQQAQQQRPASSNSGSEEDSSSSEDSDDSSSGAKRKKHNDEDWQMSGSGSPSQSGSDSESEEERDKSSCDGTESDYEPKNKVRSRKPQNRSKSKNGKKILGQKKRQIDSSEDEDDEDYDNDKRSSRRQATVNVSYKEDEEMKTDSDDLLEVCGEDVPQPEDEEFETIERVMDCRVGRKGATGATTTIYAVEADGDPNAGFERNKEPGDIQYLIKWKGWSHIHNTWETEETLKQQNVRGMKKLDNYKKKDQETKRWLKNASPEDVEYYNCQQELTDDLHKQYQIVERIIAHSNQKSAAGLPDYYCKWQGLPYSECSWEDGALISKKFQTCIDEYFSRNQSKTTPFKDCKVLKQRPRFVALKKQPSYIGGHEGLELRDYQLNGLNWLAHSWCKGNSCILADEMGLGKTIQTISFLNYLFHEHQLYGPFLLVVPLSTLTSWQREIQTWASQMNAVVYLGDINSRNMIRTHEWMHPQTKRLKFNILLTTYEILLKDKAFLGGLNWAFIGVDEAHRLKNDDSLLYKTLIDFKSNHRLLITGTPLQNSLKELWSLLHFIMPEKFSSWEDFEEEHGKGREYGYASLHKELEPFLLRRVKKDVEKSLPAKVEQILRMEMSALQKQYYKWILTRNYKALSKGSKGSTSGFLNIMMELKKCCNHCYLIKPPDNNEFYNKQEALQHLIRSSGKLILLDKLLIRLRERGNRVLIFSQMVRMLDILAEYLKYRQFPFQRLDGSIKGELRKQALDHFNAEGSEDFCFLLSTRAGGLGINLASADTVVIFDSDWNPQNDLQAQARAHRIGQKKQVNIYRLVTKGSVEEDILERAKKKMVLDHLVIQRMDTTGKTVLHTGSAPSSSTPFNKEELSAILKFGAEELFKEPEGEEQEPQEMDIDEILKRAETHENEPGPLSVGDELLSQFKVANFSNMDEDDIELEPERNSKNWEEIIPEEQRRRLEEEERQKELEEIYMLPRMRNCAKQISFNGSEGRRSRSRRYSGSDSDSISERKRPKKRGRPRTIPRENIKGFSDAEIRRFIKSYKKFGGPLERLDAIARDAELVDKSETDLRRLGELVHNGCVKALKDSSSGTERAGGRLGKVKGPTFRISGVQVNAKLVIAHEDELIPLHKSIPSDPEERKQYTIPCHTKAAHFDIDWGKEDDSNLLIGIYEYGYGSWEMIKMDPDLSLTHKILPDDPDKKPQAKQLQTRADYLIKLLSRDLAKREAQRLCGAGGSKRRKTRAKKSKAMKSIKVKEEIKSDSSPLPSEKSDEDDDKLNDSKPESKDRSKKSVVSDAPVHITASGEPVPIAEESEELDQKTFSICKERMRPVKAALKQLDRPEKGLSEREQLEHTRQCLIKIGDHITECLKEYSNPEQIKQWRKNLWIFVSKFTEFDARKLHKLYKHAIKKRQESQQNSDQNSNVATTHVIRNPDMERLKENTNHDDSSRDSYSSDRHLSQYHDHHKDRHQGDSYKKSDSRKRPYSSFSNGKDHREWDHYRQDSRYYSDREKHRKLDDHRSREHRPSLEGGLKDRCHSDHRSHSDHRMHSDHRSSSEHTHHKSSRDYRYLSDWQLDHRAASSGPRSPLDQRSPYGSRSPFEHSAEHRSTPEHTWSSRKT
# UniProt P11103: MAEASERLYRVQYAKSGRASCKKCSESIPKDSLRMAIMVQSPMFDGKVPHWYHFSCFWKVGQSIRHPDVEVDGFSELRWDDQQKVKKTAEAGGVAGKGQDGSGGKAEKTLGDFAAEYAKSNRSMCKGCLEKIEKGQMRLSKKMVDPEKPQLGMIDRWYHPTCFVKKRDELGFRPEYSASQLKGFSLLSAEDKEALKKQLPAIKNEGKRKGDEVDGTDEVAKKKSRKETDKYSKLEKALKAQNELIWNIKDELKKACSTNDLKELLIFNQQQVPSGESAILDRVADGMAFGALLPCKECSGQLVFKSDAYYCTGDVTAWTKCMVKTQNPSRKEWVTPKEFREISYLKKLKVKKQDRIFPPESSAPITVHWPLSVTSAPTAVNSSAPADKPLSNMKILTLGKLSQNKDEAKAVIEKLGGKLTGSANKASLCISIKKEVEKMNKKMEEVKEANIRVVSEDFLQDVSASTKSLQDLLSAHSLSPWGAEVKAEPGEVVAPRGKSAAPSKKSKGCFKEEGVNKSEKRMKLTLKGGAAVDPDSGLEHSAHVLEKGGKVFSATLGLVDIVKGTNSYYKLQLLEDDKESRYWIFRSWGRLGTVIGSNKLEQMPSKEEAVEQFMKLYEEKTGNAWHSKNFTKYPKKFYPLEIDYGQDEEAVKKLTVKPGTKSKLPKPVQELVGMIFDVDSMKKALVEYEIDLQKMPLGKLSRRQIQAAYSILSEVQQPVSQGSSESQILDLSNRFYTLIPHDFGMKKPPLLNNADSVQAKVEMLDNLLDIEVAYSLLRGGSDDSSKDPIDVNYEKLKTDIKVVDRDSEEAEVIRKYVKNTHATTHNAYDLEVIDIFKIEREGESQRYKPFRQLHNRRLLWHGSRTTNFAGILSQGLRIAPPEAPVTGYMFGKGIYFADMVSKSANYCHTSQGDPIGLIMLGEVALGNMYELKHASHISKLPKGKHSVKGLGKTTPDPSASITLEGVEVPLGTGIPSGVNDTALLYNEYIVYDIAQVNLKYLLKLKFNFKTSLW
# UniProt O88554: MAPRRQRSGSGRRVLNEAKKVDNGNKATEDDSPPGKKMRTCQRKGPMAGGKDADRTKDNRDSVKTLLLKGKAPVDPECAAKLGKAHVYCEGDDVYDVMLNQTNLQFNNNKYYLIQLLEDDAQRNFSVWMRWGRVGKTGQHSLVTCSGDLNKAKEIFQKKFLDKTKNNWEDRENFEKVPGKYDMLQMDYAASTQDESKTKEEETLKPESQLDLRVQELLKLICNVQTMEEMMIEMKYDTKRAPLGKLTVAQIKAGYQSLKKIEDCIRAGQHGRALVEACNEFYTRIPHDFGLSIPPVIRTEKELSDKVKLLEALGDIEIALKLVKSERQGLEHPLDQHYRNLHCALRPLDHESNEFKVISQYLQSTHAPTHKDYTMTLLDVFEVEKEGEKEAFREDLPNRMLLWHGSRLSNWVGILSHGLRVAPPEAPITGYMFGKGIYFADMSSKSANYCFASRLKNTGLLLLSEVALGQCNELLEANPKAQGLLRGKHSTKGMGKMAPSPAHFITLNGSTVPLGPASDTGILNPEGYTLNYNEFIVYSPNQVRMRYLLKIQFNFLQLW
# UniProt P70388: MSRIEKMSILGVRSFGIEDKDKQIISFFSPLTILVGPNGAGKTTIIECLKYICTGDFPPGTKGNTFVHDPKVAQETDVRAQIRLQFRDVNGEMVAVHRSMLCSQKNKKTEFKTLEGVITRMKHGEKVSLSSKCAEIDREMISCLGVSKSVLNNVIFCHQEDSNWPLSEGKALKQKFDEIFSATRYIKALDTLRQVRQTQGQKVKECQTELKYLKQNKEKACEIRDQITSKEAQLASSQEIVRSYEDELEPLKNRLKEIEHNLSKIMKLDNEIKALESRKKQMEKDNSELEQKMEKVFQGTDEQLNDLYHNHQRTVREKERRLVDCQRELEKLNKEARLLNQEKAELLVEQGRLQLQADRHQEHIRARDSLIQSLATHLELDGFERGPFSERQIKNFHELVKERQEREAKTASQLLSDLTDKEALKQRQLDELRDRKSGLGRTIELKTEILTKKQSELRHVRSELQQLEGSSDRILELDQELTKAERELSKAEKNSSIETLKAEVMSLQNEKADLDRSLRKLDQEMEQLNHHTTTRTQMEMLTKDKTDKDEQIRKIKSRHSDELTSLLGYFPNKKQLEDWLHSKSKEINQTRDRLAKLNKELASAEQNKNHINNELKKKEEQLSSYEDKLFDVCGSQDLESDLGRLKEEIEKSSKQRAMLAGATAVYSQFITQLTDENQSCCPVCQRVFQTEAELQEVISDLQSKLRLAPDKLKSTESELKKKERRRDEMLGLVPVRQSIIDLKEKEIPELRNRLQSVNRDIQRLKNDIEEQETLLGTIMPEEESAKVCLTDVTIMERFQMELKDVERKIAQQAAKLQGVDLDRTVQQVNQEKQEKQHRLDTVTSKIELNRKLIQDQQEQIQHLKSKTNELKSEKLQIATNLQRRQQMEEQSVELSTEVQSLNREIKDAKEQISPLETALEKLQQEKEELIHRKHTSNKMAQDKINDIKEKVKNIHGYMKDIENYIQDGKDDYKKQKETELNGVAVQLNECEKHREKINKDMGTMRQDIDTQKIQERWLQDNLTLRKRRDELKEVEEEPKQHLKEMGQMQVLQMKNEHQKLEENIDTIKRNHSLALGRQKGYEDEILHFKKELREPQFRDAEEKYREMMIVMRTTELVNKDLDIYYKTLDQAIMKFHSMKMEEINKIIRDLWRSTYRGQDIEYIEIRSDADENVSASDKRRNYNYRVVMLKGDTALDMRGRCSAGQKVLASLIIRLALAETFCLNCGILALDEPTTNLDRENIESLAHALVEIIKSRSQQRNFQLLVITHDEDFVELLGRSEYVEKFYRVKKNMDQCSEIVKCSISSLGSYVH
# UniProt Q64511: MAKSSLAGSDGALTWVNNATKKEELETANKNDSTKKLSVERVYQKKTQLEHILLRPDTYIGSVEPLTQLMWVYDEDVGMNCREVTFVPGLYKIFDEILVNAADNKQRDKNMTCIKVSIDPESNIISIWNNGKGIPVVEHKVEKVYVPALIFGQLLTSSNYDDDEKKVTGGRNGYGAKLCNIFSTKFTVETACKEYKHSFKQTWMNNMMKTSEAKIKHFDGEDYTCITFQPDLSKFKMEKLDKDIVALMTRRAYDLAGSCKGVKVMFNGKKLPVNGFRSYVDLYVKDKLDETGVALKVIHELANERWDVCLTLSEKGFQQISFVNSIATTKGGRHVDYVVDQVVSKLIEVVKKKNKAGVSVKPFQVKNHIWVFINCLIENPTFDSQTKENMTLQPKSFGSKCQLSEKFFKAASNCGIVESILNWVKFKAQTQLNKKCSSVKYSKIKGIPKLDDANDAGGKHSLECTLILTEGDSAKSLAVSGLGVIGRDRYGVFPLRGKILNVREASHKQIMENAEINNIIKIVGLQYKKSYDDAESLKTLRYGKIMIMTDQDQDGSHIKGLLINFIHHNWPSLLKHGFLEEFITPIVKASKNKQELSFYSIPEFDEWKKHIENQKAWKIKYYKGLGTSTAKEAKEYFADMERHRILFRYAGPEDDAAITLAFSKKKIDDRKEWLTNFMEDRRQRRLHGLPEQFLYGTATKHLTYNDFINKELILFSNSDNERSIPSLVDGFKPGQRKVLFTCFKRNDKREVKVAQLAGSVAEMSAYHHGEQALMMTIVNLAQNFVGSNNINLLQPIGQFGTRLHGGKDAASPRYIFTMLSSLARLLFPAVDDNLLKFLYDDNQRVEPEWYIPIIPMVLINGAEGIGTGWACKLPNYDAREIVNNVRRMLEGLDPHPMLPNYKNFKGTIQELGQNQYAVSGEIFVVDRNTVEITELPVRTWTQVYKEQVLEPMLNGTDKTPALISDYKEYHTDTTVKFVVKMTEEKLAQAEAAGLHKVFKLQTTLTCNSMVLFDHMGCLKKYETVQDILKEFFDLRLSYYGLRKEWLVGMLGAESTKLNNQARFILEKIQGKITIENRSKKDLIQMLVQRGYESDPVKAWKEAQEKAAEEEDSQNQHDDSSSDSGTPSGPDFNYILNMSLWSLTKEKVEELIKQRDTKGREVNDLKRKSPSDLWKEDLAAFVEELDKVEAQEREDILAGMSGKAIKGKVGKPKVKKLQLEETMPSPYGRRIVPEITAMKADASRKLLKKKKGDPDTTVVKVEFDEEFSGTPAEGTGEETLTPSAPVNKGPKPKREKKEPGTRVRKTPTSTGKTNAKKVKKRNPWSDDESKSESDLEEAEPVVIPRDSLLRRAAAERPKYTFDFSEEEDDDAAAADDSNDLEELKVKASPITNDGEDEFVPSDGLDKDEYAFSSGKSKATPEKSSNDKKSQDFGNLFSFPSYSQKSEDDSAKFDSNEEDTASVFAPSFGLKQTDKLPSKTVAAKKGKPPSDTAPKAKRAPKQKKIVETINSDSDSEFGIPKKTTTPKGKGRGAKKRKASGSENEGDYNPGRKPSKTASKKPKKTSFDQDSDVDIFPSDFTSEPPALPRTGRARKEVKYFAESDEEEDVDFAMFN
# Molecular target: Chd1-Flag (knock-in) (mouse) (UniProt P40201)
# Experiment: affinity purification with mass spectrometry
row,binding,Molecule
1,binds,Parp1 (from UniProt P11103 1-1013) (enzyme)
2,binds,Parp2 (from UniProt O88554 1-559) (enzyme)
3,binds,Rad50 (from UniProt P70388 1-1312)
4,binds,histone variant H2A.X (from UniProt P27661 1-143)
5,binds,topoisomerase 2β (Top2β) (from UniProt Q64511 1-1612) (enzyme)
6,binds,"Mre11 (protein, UniProt Q61216 1-706) MSPTDPLDDEDTFKILVATDIHLGFMEKDAVRGNDTFVTFDEILRLALENEVDFILLGGDLFHENKPSRKTLHSCLELLRKYCMGDRPVQFEVISDQSVNFGFSKFPWVNYQDGNLNISIPVFSIHGNHDDPTGADALCALDVLSCAGFVNHFGRSMSVEKVDISPVLLQKGSTKLALYGLGSIPDERLYRMFVNKKVTMLRPKEDENSWFNLFVIHQNRSKHGNTNFIPEQFLDDFIDLVIWGHEHECKIGPIKNEQQLFYVSQPGSSVVTSLSPGEAVKKHVGLLRIKGRKMNMQKLPLRTVRRFFIEDVVLANHPNLFNPDNPKVTQAIQSFCLEKIEEMLDSAERERLGNPQQPGKPLIRLRVDYSGGFEPFNVLRFSQKFVDRVANPKDVIHFFRHREQKGKTGEEINFGMLITKPASEGATLRVEDLVKQYFQTAEKNVQLSLLTERGMGEAVQEFVDKEEKDAIEELVKYQLEKTQRFLKERHIDALEDKIDEEVRRFRESRQRNTNEEDDEVREAMSRARALRSQSETSTSAFSAEDLSFDTSEQTANDSDDSLSAVPSRGRGRGRGRRGARGQSSAPRGGSQRGRDTGLEITTRGRSSKATSSTSRNMSIIDAFRSTRQQPSRNVAPKNYSETIEVDDSDEDDIFPTNSRADQRWSGTTSSKRMSQSQTAKGVDFESDEDDDDDPFMSSSCPRRNRR"

# These are yes or no findings as the source states them, for the method shown. Binding seen in cells or lysates may run through a third protein. These calls come from enrichment with a bait or labelling near it, and not all partners need be listed.
